# These are yes or no findings as the source states them, for the method shown. Binding seen in cells or lysates may run through a third protein. Some entries that bind do so weakly or less than the wild type.
# By UniProt entry, the sequences of proteins in these tests, tags left out. Residues count along the entry.
# UniProt Q03431, residues 27-593: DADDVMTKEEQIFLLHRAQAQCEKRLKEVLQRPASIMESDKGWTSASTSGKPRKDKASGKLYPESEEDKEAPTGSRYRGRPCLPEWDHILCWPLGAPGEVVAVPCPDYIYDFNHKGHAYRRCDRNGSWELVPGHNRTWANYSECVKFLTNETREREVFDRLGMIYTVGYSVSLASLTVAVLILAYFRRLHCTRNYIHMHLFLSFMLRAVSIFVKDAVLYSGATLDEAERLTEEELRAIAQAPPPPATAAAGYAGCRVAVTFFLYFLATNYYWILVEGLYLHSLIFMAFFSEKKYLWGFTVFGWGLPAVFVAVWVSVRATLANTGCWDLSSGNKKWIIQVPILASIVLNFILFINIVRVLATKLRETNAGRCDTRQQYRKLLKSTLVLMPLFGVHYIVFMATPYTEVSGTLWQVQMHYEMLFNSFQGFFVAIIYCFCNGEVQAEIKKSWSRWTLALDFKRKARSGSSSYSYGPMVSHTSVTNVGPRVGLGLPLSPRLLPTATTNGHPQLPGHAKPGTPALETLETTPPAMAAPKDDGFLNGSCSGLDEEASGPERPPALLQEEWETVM
# UniProt P32121: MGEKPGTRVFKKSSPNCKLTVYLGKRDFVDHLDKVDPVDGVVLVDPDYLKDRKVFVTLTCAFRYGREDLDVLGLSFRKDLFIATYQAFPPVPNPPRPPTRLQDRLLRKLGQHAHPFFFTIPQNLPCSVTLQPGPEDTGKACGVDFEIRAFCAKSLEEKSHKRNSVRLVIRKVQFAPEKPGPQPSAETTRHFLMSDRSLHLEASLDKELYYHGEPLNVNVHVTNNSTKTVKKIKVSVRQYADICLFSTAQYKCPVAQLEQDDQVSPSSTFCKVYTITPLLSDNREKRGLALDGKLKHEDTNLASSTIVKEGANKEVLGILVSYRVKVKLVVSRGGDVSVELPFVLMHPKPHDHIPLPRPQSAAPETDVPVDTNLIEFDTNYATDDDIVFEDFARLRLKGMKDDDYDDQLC
# Key:
# [1] = biological target: PTHR^CFP (UniProt Q03431); assay: FRET or BRET; FRET time course in single HEK293 cells transiently expressing PTHR^CFP and βarr-2^YFP, treated with 10 nM PTH(1-34) for 30 s, then washout
# [2] = biological target: PTHR^CFP (UniProt Q03431); assay: condition: only cells treated with 10 nM PTHrP_(1-141) for 30 s in place of PTH_(1-34); FRET or BRET; FRET time course in single HEK293 cells transiently expressing PTHR^CFP and βarr-2^YFP, treated with 10 nM PTHrP(1-141) for 30 s, then washout
substance,measurement,setting,value
βarr-2^YFP (β-arrestin 2 tagged with YFP) (from UniProt P32121 1-409),binding,[1],binds
same,binding,[2],no binding

# From article PMC9437850
